Results taken from PubChem BioAssay AID504444 (National Center for Advancing Translational Sciences (NCATS), 2011).
About 7,500 (2.1%) of roughly 360,000 compounds were called active. Inconclusive means that the source gave no clear call. Such entries were picked first, then a sample of the others. Calls follow the shape of the dose curve; as a rule, active = well fitted inhibition curve with a large enough effect; inconclusive = small, poorly fitted or top-dose-only effect, or effect the other way; inactive = flat fitted curve, though single readings scatter. Potencies of inconclusive entries are doubtful fits and often do not repeat.

Assay: Nrf2 qHTS screen for inhibitors; also: nearly all actives have a fitted effect of over 60% in size
Conditions: A549 ARE-Fluc reporter, luciferase luminescence, 18-24 h; activity change, negative = inhibition: at 46 µM (top of the series)
From the text: NIH Molecular Libraries Probe Production Network [MLPCN]
NIH Chemical Genomics Center [NCGC]
Assay Provider: Shyam Biswal, Johns Hopkins University
Nrf2 is a transcription factor that maintains cellular redox homoestasis and protects cells from xenobiotics. Nrf2 binds to the antioxidant response element (ARE) to induce gene expression of a broad spectrum of genes that encode for antioxidants. […] Finding a small molecule that act as an inhibitor of Nrf2 function would represent a novel therapeutic target that could lead to improvement in survival of patients undergoing chemo- and/or radio- therapy.
This is the Nrf2 activity measured in the luminescent read.
1. Shibata, T., et al., Genetic Alteration of Keap1 Confers Constitutive Nrf2 Activation and Resistance to Chemotherapy in Gallbladder Cancer. Gastroenterology, 2008.
2. Sjoblom, T., et al., The consensus coding sequences of human breast and colorectal cancers. Science, 2006. 314(5797): p. 268-74.
NCGC Assay Protocol Summary:
A concentration-response assay was performed with A549 ARE_Fluc cells which are suspended in 5% FBS OPTI-MEM. Five uL were dispensed into 1536-well white TC-treated plate using the Kalypsys dispenser to achieve a density of 5000 cells/well in all columns except column 1. The plate is incubated at 37deg C at 5% CO2 for 2 hours before 23 nL of compounds are added with the Kalypsys pin tool equipped with a 1,536-pin array containing 10-nL slotted pins (FP1S10, 0.457-mm diameter, 50.8 mm long; V&P Scientific). The control compounds Budesonide and Staurosporine are both added at a concentration of 2mM and Budesonide is also added as a 1:10 titration, starting at 200uM, to achieve dose-response. After an 18-24 hour incubation at 37deg C at 5% CO2, 5ul of medium is added to column 1. Afterwards 1ul of 5x of CellTiter-Fluor (Promega) is added to every well. The plate is then incubated at 37deg C at 5% CO2 for 30 minutes before they are read on the ViewLux (Perkin Elmer) for a fluorescent read Ex=405(10)/Em=525(10) for a 3 second exposure, 2x binning, and high gain. Then 3 uL of 3x BugLite is dispensed into all wells and the plate is incubated at ambient room temperature for 15 minutes. Afterwards another ViewLux read is performed using the clear filter to get a luminescent read with the settings of 40 second exposure, 2x binning, and high gain. Cytotoxicity is assessed through the first fluorescent read and then biochemical activity against Nrf2 is measured in the luminescent read.
% is scaled to controls: 0 for no effect and ±100 for the full control effect; potency is read from the fitted curve at half-maximal effect.

Structure (SMILES)	Potency	activity change, negative = inhibition
COc1ccccc1C1c2[nH]c3ccccc3c2CCN1Cc1ccc(NC(C)=O)s1 (stereo not given)	inconclusive: 29.1 µM [falling, single point]	–
O=C(NN=C1CCC(c2ccccc2)CC1)c1ccccc1-n1cccc1 (stereo not given)	inactive	–
COc1ccc(NC(=O)CN(C)C(=O)c2ccc(N3CCCCC3)c([N+](=O)[O-])c2)cc1	inconclusive: 25.9 µM [falling, partial curve, poor fit]	–
CC1(C)CC2CC(C)(CN2c2ncnc3ccc(Br)cc23)C1 (stereo not given)	inconclusive: 29.1 µM [falling, single point]	–
Cc1ccc(C(=O)Nc2ccc3nccnc3c2)cc1	inconclusive: 2.06 µM [activator, partial curve]	–
Cc1ccc(C(=O)N2CCC(C(=O)c3c(C)cc(C)cc3C)CC2)cc1	inconclusive: 18.4 µM [falling, single point]	–
CC(C)COc1ccc(-c2nnc(-c3ccco3)o2)cc1	inconclusive: 13 µM [falling, partial curve, poor fit]	–
CSc1ccc(NC(=O)/C=C/C(=O)O)cc1	inconclusive: 1.46 µM [activator, partial curve, poor fit]	–
COc1cc(=O)[nH]c(=O)n1C(=O)Cc1ccccc1	inconclusive: 0.259 µM [falling, partial curve, poor fit]	–
O=C(CC1NCCNC1=O)Nc1ccc(F)c(Cl)c1 (stereo not given)	inactive	–
COc1cccc(CN(C)C(=O)c2cccc(S(=O)(=O)Nc3cccc(C)c3)c2)c1OC	inactive	–
C/C=C(/C)C(=O)O[C@@H]1c2c(ccc3ccc(=O)oc23)O[C@@H]1C(C)(C)OC(=O)/C(C)=C\C	inconclusive: 25.9 µM [falling, single point]	–
Cc1cc(NC(=O)c2oc3c(c2C)-c2[nH]ncc2CC3)ccc1Br	inconclusive: 13 µM [falling, partial curve, poor fit]	–
COc1ccc(NC(=O)CN2CCCN(Cc3ccccc3)S2(=O)=O)cc1	inactive	–
C[C@@H]1CC=C[C@@H]2[C@H]1C(=O)N(Cc1ccccc1)[C@H]2c1ccccc1Br	inconclusive: 29.1 µM [falling, partial curve, poor fit]	–
Cc1onc(-c2ccccc2Cl)c1C(N)=O	inconclusive: 0.103 µM [activator, full curve, poor fit]	–
Fc1ccc(CNc2nc(-c3ccc(Cl)cc3)cc(C(F)(F)F)n2)cc1	–	inactive: -5.94% [at 9.27 µM]
CCCCOC(=O)c1ccc(NC(=O)c2ccc3c(c2)CCCN3S(C)(=O)=O)cc1	inconclusive: 0.731 µM [activator, partial curve, poor fit]	–
CCc1cccc(C)c1NC(=O)CSc1nnc(-c2cc3cc(Br)ccc3o2)n1CC	active: 16.4 µM	–
CCc1nnc(NC(=O)CSc2nnc(-c3ccccc3OC)n2-c2ccc(C)cc2)s1	inconclusive: 4.11 µM [falling, single point]	–
CCOC(=O)N1CCN(C(=O)CCCn2c(=S)[nH]c3ccc(Br)cc3c2=O)CC1	inconclusive: 29.1 µM [falling, single point]	–
Cc1ccc(N2C(=O)C(Cl)=C(N3CCCCCC3)C2=O)c(C)c1	active: 23.1 µM	–

Structure (SMILES)	Potency	activity change, negative = inhibition
Cc1ccc(CNC(=O)C2CCN(S(=O)(=O)c3ccc4c(c3)CC(C)N4C(=O)C3CC3)CC2)cc1 (stereo not given)	inconclusive: 18.4 µM [falling, single point]	–
O=C1Nc2ccccc2C12OCC(COc1ccc(Cl)cc1)O2 (stereo not given)	inconclusive: 29.1 µM [falling, single point]	–
CC(C)(C)NCC(O)c1cc(O)cc(O)c1 (stereo not given)	inconclusive: 23.1 µM [falling, partial curve, poor fit]	–
OC[C@@H](O)C1OC2NC(=S)OC2C1O (stereo not given in full)	inconclusive: 25.9 µM [activator, partial curve, poor fit]	–
C/C(=N\NS(=O)(=O)c1ccccc1)c1ccc2c(c1)OCO2	inconclusive: 11.6 µM [activator, partial curve, poor fit]	–
N#CC(C(=O)NCc1ccco1)c1nc2ccccc2nc1N1CCOCC1 (stereo not given)	inconclusive: 25.9 µM [falling, single point]	–
COc1ccc(Cl)cc1C(=O)OCC(=O)N(CC(C)C)c1c(N)n(Cc2ccccc2)c(=O)[nH]c1=O	inconclusive: 29.1 µM [falling, single point]	–
COc1ccc(/C=N\NC(=O)c2ccc([N+](=O)[O-])c(C)c2)cc1COc1ccccc1C(N)=O	inactive	–
Cc1cc(C(=O)Nc2sc(C)c(-c3ccc(F)cc3)c2C(N)=O)no1	inconclusive: 0.517 µM [activator, full curve]	–
COc1ccc(NC(=O)c2ccc(NC(=O)CN3CCN(c4ccc(O)cc4)CC3)cc2)cc1	inconclusive: 29.1 µM [falling, single point]	–
COc1ccc(C(=O)N2CCN(CCNC(=O)C(=O)Nc3ccc(Br)cc3)CC2)cc1	inconclusive: 20.6 µM [falling, partial curve]	–
CCC(CO)Nc1ncnc2c1cnn2-c1ccc(OC)cc1 (stereo not given)	inconclusive: 1.64 µM [activator, partial curve]	–
Cc1ccccc1OCC(=O)N/N=C/c1ccc(Sc2nc3ccccc3s2)o1	inconclusive: 29.1 µM [falling, single point]	–
Nc1nc2nc(-c3ccccc3)cc(=O)n2[nH]1	inconclusive: 23.1 µM [falling, partial curve, poor fit]	–
Cn1c(SCC(=O)N/N=C/c2ccco2)nc2ccccc21	inconclusive: 0.92 µM [falling, full curve, poor fit]	–
Cc1onc(-c2ccc(Cl)cc2Cl)c1-c1csc(COc2ccccc2)n1	inconclusive: 2.06 µM [activator, partial curve, poor fit]	–
Cc1ccc(C(=O)Nc2nnc(-c3ccco3)o2)cc1	inactive	–
CN1CCN(NC(=S)Nc2ccc(Oc3ccccc3)cc2)CC1	inconclusive: 20.6 µM [falling, single point]	–
COc1ccccc1Nc1ccc(NS(=O)(=O)c2ccc(C(C)=O)cc2)cc1	inconclusive: 23.1 µM [falling, single point]	–
COc1ccc(Cl)cc1NC(=O)CSc1nc(-c2cccs2)cc(C(F)(F)F)n1	inconclusive: 16.4 µM [falling, partial curve, poor fit]	–
Cc1ccc(-c2nn(CC(=O)NC(C)c3ccccc3)c(=O)c3ccccc23)cc1 (stereo not given)	inconclusive: 23.1 µM [falling, single point]	–
O=C1C(Cc2ccccc2)Nc2ncnc(N3CCN(c4ccccc4)CC3)c2N1Cc1ccc(Cl)cc1 (stereo not given)	inactive	–

Among those listed so far, four have fluorine:
Structure (SMILES)	Potency	activity change, negative = inhibition
O=C(CC1NCCNC1=O)Nc1ccc(F)c(Cl)c1 (stereo not given)	inactive	–
Fc1ccc(CNc2nc(-c3ccc(Cl)cc3)cc(C(F)(F)F)n2)cc1	–	inactive: -5.94% [at 9.27 µM]
Cc1cc(C(=O)Nc2sc(C)c(-c3ccc(F)cc3)c2C(N)=O)no1	inconclusive: 0.517 µM [activator, full curve]	–
COc1ccc(Cl)cc1NC(=O)CSc1nc(-c2cccs2)cc(C(F)(F)F)n1	inconclusive: 16.4 µM [falling, partial curve, poor fit]	–

The list goes on:

Structure (SMILES)	Potency	activity change, negative = inhibition
Cc1ccc(NC(=O)CN(C)C(=O)COc2ccc(C(=O)c3ccc(F)cc3)cc2)cc1	inconclusive: 23.1 µM [falling, single point]	–
CCN1CCN(c2ccc(S(=O)(=O)N3CCCCC3)cc2NC(=O)/C=C/c2cc(OC)ccc2OC)CC1	inactive	–
N#Cc1ccc(C#Cc2ccc3oc4ccccc4c(=O)c3c2)cc1	inactive	–
Cc1ccc(S(=O)(=O)NCC(=O)Nc2ccc3c(c2)OCO3)cc1	inconclusive: 29.1 µM [activator, single point]	–
COc1cc(CCN2C(=O)c3cccc4cccc(c34)C2=O)c(S(=O)(=O)NCCO)cc1OC	inactive	–
CNc1c(C(=O)O)ccc2c1C(=O)c1ccccc1C2=O	inconclusive: 16.4 µM [falling, single point]	–
COC(=O)[C@H](C)[C@H](CC(C)C)NC(=O)[C@H](C)[C@H](CC(C)C)NC(=O)c1ccccn1	inactive	–
COc1ccccc1N(C)S(=O)(=O)c1ccc(C(=O)Nc2cccc(S(=O)(=O)N3CCOCC3)c2)cc1	inconclusive: 32.6 µM [falling, single point]	–
O=C(CSc1nnnn1-c1ccc(Cl)cc1)NC(=O)Nc1ccc2c(c1)OCCO2	inconclusive: 6.51 µM [activator, partial curve]	–
COc1ccc(-c2nc3ccc(N4CCN(C)CC4)cc3c(=O)[nH]2)cc1	inconclusive: 18.4 µM [activator, partial curve]	–
CCCCC(=O)N/N=C/c1ccc(Sc2cccc3cccnc23)o1	inconclusive: 29.1 µM [falling, single point]	–
COc1ccc(NC(=O)CC2C(=O)Nc3ccccc3N2CC(=O)N2CCCC2)cc1 (stereo not given)	inactive	–
CCC(CC)C(=O)Nc1ccc2nc(SCC(=O)N3CCOCC3)sc2c1	inactive	–
C=CCNC(=O)C1CC1(c1cccc(C)c1)c1cccc(C)c1 (stereo not given)	inactive	–
OC(CCCC(O)c1ccccc1)c1ccccc1 (stereo not given)	inconclusive: 23.1 µM [activator, partial curve]	–
CCn1cc(CN2CCCC(C(=O)Nc3cccc(-c4cc5ccccc5[nH]4)c3)C2)c(C)n1 (stereo not given)	inconclusive: 6.51 µM [falling, full curve, poor fit]	–
Cc1ccc(NC(=O)c2ccc(CN3CCc4ccccc4C3)cc2)cc1	inconclusive: 18.4 µM [falling, single point]	–
CCOc1cc(NC(=S)NCC2CCCO2)c(OCC)cc1NC(=O)c1ccccc1 (stereo not given)	inconclusive: 1.84 µM [falling, partial curve, poor fit]	–
Nc1ccc2c(c1)CC(=O)c1ccccc1S2	inactive	–
CN(CCO)C(=O)C1CCN(c2ncc(C(F)(F)F)cc2Cl)CC1	inconclusive: 20.6 µM [falling, partial curve]	–
CCn1c(Oc2ccccc2C)nc2c1c(=O)n(C)c(=O)n2C	inconclusive: 16.4 µM [falling, partial curve, poor fit]	–
